This is an account of results in article PMC7819943, “Rice protein-binding microarrays: a tool to detect cis-acting elements near promoter regions in rice”.

By UniProt entry, the sequences of proteins in these tests, tags left out.
UniProt Q0JBA9, entry or part of it: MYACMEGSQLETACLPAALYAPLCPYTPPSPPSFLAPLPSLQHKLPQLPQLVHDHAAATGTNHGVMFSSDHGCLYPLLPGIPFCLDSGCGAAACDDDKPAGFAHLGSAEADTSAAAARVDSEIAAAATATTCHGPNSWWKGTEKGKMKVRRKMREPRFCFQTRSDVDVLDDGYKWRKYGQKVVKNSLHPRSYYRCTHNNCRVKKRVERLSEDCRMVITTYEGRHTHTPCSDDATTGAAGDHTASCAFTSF

The list shows a part of the results.

The test deals with OsWRKY34 (Oryza sativa, UniProt Q0JBA9 1-250). Nature of the test: protein-binding microarray (RPBM); PBS, 2% BSA, 51.3 ng/ul salmon testes DNA, 50 uM zinc acetate, 200 nM TF, 25 C, 1 h; high values mean tight binding. The conditions noted are these: protein: recombinant; tags: N-terminal polyhistidine and DsRed monomer fusion (pET32a); label: CyDye5-dUTP incorporated in the synthesized complementary strand; 3' TTTTT single-stranded linker to array surface; dsDNA, one strand shown. Summed up:
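The binding signal is fluorescence intensity per feature, in arbitrary units, read on an Axon 4000B scanner. Polyhistidine- and DsRed-tagged transcription factors (N-terminal fusions) from E. coli BL21-CodonPlus were purified on Ni–NTA and applied at 200 nM for 1 h at 25 °C to a double-stranded, BSA-blocked custom Agilent array in buffer with 50 µM zinc acetate.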
For the sequence “AGGGCACTGTCATCGGGGTCAGGGTTAGGGTCACCGCCACCGGAGTCACCTAGTGCAG”, the binding signal was 9600 fluorescence intensity (a.u.).

For “TCTTGCCGTGTTTGGTTGGGATTGCATTTGATCAAGAGGACGGAGTCACCTAGTGCAG”, the binding signal is 9800 fluorescence intensity (a.u.).

As for “ATTTTGATTAGTGCGTTTGATTAGTGGTGTTTATTATGTCCGGAGTCACCTAGTGCAG”, the binding signal is 9410 fluorescence intensity (a.u.).

With “TAGTAGTACTCATTTACCGTTGTGACAGTTTTTATTTATCCGGAGTCACCTAGTGCAG”, the binding signal was 12200 fluorescence intensity (a.u.).

“GTACATGAGCTTTGTCTCTTTGGTAAACAGTTCTTTAAGGCGGAGTCACCTAGTGCAG”: the binding signal was 8020 fluorescence intensity (a.u.).

In the case of “AACGCAATCAATTGTCCCTTATTTCCAGTGACATTCCTTACGGAGTCACCTAGTGCAG”, the binding signal is 10100 fluorescence intensity (a.u.).

Regarding “CATTCCTTTCACCTAGTATTCTTTCTCTCATGCCTCTGTACGGAGTCACCTAGTGCAG”, the binding signal is 9220 fluorescence intensity (a.u.).

For the sequence “CACCGCCCACTGCCGCGCCGCTTCGCTCCGTCGCCGCTCGCGGAGTCACCTAGTGCAG”, the binding signal is 8990 fluorescence intensity (a.u.).

For “TCGTCGGTGGTGTGGGGAGGAGAAGATGGCCGGAGAGGAACGGAGTCACCTAGTGCAG”, the binding signal is 15000 fluorescence intensity (a.u.).

With “TTTCTTCCAACCGTCTCATCCCGCTGTTATGCTAATCCAGCGGAGTCACCTAGTGCAG”, the binding signal was 8220 fluorescence intensity (a.u.).

On to “GTATATTAAAAGTCAACGACATGATTTTAAAAAAAAGTCACGGAGTCACCTAGTGCAG”, for which the binding signal was 8570 fluorescence intensity (a.u.).

As for “TCCTCAAGATATCTCCACGTATAACTAATCTTGCATATCCCGGAGTCACCTAGTGCAG”, the binding signal was 9450 fluorescence intensity (a.u.).

Regarding “GCTCGCACGATCCATACATGCACAGCCACTAACTACTGCACGGAGTCACCTAGTGCAG”, the binding signal was 10800 fluorescence intensity (a.u.).

Consider “CCTTCTCTTTTGTATTGCCCCATTGCTCATTGTTTACTCCCGGAGTCACCTAGTGCAG”, for which the binding signal was 12400 fluorescence intensity (a.u.).

“CCTTCCTTGATCTTTCCTCTCTCTTCTTTGCCTGCCTATACGGAGTCACCTAGTGCAG”: the binding signal was 11700 fluorescence intensity (a.u.).

Turning to “AACCAAATCAATGTCCTTTCCAGTCTGGTCTTGTGTTTGACGGAGTCACCTAGTGCAG”, the binding signal was 9580 fluorescence intensity (a.u.).

Consider “AATTTCCGCTAATGGGACAGGTTGACCATGGTTGACTTTGCGGAGTCACCTAGTGCAG”, for which the binding signal is 13000 fluorescence intensity (a.u.).

Take “GCCTCACGCGTCCTCTTTTTCACCCAAGAACCGGTGGTATCGGAGTCACCTAGTGCAG”: the binding signal is 11200 fluorescence intensity (a.u.).

For the sequence “CTATTCATTTTGTATTGGATCCGATGCGTTTTATTTTCGTCGGAGTCACCTAGTGCAG”, the binding signal is 8430 fluorescence intensity (a.u.).

As to “GGTACTTACGTGGCAGCCCAATAGCCACCACGACCCTCCGCGGAGTCACCTAGTGCAG”, the binding signal is 8590 fluorescence intensity (a.u.).

In the case of “ATCGTTTACTTTCTTTTTGAAACTCCGTTAGATCGTTTACCGGAGTCACCTAGTGCAG”, the binding signal is 8120 fluorescence intensity (a.u.).

For the sequence “TCGTGACCGTTTTCACCCCTATATCACGTGATACTTGATACGGAGTCACCTAGTGCAG”, the binding signal was 8200 fluorescence intensity (a.u.).

Consider “TCACAATCATCGTCATTACATATCCCATATATCCCATTCACGGAGTCACCTAGTGCAG”, for which the binding signal was 8260 fluorescence intensity (a.u.).

As for “CTAAACCCTGTACAATCCTCATCCACTCAGATCTCTCTTCCGGAGTCACCTAGTGCAG”, the binding signal was 8680 fluorescence intensity (a.u.).

With “ACTTCACGTTGCGCCTAGGACTGACGGTTTTCGTTAACCGCGGAGTCACCTAGTGCAG”, the binding signal was 8420 fluorescence intensity (a.u.).

With “CCAGTCCAGTTACAGCCTACAGGCATCTTCTTCACACGAACGGAGTCACCTAGTGCAG”, the binding signal was 9260 fluorescence intensity (a.u.).

On to “TTTATACATGGTTTGTGTTTTTCTCACTTTGGGTTGGGGACGGAGTCACCTAGTGCAG”, for which the binding signal was 18000 fluorescence intensity (a.u.).

For the sequence “TTGAAACTAAACAAGGCATTTAGCTCAAACCCTCATTGACCGGAGTCACCTAGTGCAG”, the binding signal was 8470 fluorescence intensity (a.u.).

Turning to “CACTCTCTCTTTCTGTGAAACAGTTCCTAATTTTGCACTGCGGAGTCACCTAGTGCAG”, the binding signal is 8260 fluorescence intensity (a.u.).

Take “TTCACGTAACTTACTTGCTCTAATCGTCGGTGGCTGGATCCGGAGTCACCTAGTGCAG”: the binding signal is 9270 fluorescence intensity (a.u.).

On to “TACTATTTCAGATTCTATTATCCCAACGCCCAACCTGCACCGGAGTCACCTAGTGCAG”, for which the binding signal was 8080 fluorescence intensity (a.u.).

Consider “CTTAACCGCCGTAGTACAGCTTTTGTTGACATTTTCTTTCCGGAGTCACCTAGTGCAG”, for which the binding signal is 8190 fluorescence intensity (a.u.).

On to “TTATACATTTACTTTGCTTTTTTTTTTAAAAAAAAACACTCGGAGTCACCTAGTGCAG”, for which the binding signal was 9190 fluorescence intensity (a.u.).

As to “AGTACCTCCGGAAGATGTTTAATGGGGTTTTTTCTCTTTTCGGAGTCACCTAGTGCAG”, the binding signal was 13700 fluorescence intensity (a.u.).

On to “TGGGGATGTCTATGTATCATATTTTATATTCTTAAATTCACGGAGTCACCTAGTGCAG”, for which the binding signal is 10600 fluorescence intensity (a.u.).

With “TGCTCGTGGTGAATTTCGTGGTGTTTTTTTTTTACTGGTTCGGAGTCACCTAGTGCAG”, the binding signal is 10400 fluorescence intensity (a.u.).

Consider “CAGCTTGAACTTAGAGGTGGGTTGCTTAGCCTGGTTTTACCGGAGTCACCTAGTGCAG”, for which the binding signal was 9580 fluorescence intensity (a.u.).

As for “AGTTATCTTTTGTGTTGGTATTGGAAGCACGCGTATAATTCGGAGTCACCTAGTGCAG”, the binding signal was 9930 fluorescence intensity (a.u.).

“CTCCTTTTTTTTTTGTCAACGGTAGCACACACCTCAACGCCGGAGTCACCTAGTGCAG”: the binding signal is 9170 fluorescence intensity (a.u.).

“GCGGTTCATTAGTGCGTGATTAATTAAGTATTAGCTATTTCGGAGTCACCTAGTGCAG”: the binding signal is 8420 fluorescence intensity (a.u.).

For “ACACACCGCGGGTTGGAGGAGGAGGAGGAGGAGGTAGGGGCGGAGTCACCTAGTGCAG”, the binding signal was 10500 fluorescence intensity (a.u.).

For “AACCGACCCACCTGACCTCCTGTCCTCGTCTCCACCACTTCGGAGTCACCTAGTGCAG”, the binding signal was 9420 fluorescence intensity (a.u.).
